No constants are given. Whether binding was seen depends on the method and setting. Binding seen in cells or lysates may run through a third protein. Some entries that bind do so weakly or less than the wild type.

Sequences of proteins named here, by UniProt entry; tags and fusion partners are left off.
UniProt Q5AJU7: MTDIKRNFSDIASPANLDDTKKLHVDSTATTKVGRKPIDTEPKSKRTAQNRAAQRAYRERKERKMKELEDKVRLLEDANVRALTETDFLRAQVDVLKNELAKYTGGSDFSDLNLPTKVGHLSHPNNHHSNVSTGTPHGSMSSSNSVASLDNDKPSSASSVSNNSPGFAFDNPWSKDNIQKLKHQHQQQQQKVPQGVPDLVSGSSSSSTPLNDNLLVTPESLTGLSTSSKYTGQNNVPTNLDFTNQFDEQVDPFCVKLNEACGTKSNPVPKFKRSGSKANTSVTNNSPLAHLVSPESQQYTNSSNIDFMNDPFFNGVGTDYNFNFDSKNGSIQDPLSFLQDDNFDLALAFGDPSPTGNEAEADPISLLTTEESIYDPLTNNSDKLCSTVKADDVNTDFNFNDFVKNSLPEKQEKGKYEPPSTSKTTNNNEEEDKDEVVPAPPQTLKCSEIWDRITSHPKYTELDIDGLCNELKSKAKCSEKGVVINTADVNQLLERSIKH

Experimental findings from article PMC4817257 are described below.

In this assay the target is Crm1 nuclear export factor tagged with 2 Myc epitopes and 6 His residues (C. albicans) (UniProt Q9P8X1). Put plainly: co-IP; Crm1-MH immunoprecipitated with anti-Myc (9E10) agarose from total extracts of C. albicans cells (wild type or hog1Δ) before and after 5 mM H2O2, 1 M NaCl, 5 mM H2O2 plus 1 M NaCl (10-60 min) or 2 M sorbitol; precipitates treated with lambda phosphatase; Cap1 detected by Western blot with anti-Cap1 antibodies. On the technique in general: Immunoblotting shows a protein as a band on a membrane.

Consider “Cap1 AP-1-like transcription factor (from UniProt Q5AJU7 1-499)”, for which the binding result is on record as “binds”.
